In US20220411718A1, “DETERGENT COMPOSITIONS” (The Procter & Gamble Company, priority 2021, published 2022):

Assay: Laundry test with SPME GC/MS headspace analysis of dried polyester tracers after four wash and dry cycles
Conditions: for % increase Ex 1 vs Ex C: headspace of perfume ingredient on polyester, with PVP/PVI vs without; for Headspace above dried polyester tracers, Ex A (nil-PVP/PVI): laundered with comparative detergent Ex A (no PVP/PVI copolymer, 1.25 wt % perfume); for Headspace above dried polyester tracers, Ex A (nil-PVP/PVI) / Headspace above dried polyester tracers, Ex 1 (PVP/PVI): 4 wash/dry cycles, 40° C., SPME at 65° C.; for Headspace above dried polyester tracers, Ex 1 (PVP/PVI): laundered with detergent Ex 1 (0.1 wt % PVP/PVI copolymer, 1.25 wt % perfume)

Compound | % increase Ex 1 vs Ex C [%] | Headspace above dried polyester tracers, Ex A (nil-PVP/PVI) [nmol/L] | Headspace above dried polyester tracers, Ex 1 (PVP/PVI) [nmol/L]
C=CCOC(=O)COCCC(C)C [Allyl amyl glycolate, allyl 2-(isopentyloxy)acetate] | 806 | 0.267 | 2.153
CC(C=O)Cc1ccc(C(C)(C)C)cc1 (stereo not shown) [Lilial, 3-(4-(tert-butyl)phenyl)-2-methylpropanal] | 1462 | 0.065 | 0.950
O=C1CCCCCCCCCCCCCCO1 [Exaltolide total, oxacyclohexadecan-2-one] | 547 | 0.231 | 1.264
COc1ccc(C)cc1 [Para cresyl methyl ether, 1-methoxy-4-methylbenzene] | 356 | 7.850 | 27.974
C=CC(C)(O)CCC=C(C)C (stereo not shown) [Linalool, 3,7-dimethylocta-1,6-dien-3-ol] | 1067 | 0.064 | 0.683
3-(3,3-dimethyl-2,3-dihydro-1H-inden-5-yl)propanal mixt. wth 3-(1,1-dimethyl-2,3-dihydro-1H-inden-5-yl)propanal [Neo Hivernal] | 333 | 0.009 | 0.030
COC(=O)c1ccccc1O [Methyl salicylate USP, methyl 2-hydroxybenzoate] | 455 | 2.813 | 12.788
CCOC(=O)C1=C(C)C=CCC1(C)C [Ethyl safranate, ethyl 2,6,6-trimethylcyclohexa-1,3-diene-1-carboxylate] | 2373 | 0.030 | 0.712
COc1ccc2ccccc2c1 [Beta napthol methyl ether, 2-methoxynaphthalene] | 421 | 2.177 | 9.173
CC1=CCC2CC1C2(C)C (stereo not drawn) [Alpha pinene, 2,6,6-trimethylbicyclo(3.1.1)hept-2-ene] | 943 | 0.023 | 0.217
CC(CC=O)CCCC(C)(C)O (stereo not shown) [Hydroxycitronellal, 7-hydroxy-3,7-dimethyloctanal] | – | 0.000 | 0.000
CC(=O)OCc1ccccc1 [Benzyl acetate, benzyl acetate] | 424 | 0.592 | 2.510
CC(C)c1cccc(C(C)CC=O)c1 (stereo not shown) [Florhydral, 3-(3-isopropylphenyl)butanal] | 713 | 0.054 | 0.385
CC(=O)/C=C/C1=C(C)CCCC1(C)C [Ionone beta, (E)-4-(2,6,6-trimethylcyclohex-1-en-1-yl)but-3-en-2-one] | 3960 | 0.015 | 0.594
C=CC(C)(CCC=C(C)C)OC(=O)CC (stereo not shown) [Linalyl propionate, 3,7-dimethylocta-1,6-dien-3-yl propionate] | 3390 | 0.031 | 1.051
CCC(=O)OCC(C)(C)OC(C)C1CCCC(C)(C)C1 (stereo not shown) [Helvetolide, 2-(1-(3,3-dimethylcyclohexyl)ethoxy)-2-methylpropyl propionate] | 860 | 0.020 | 0.172
CC(C)(O)CCc1ccccc1 [Phenyl ethyl dimethyl carbinol, 2-methyl-4-phenylbutan-2-ol] | 1262 | 0.013 | 0.164
CC(C)=CCCC(C)CCO (stereo not shown) [Citronellol, 3,7-dimethyloct-6-en-1-ol] | 1124 | 0.104 | 1.169
C=C(C)C1CC=C(C)C(=O)C1 (stereo not shown) [Laevo carvone, 2-methyl-5-(prop-1-en-2-yl)cyclohex-2-en-1-one] | 813 | 0.640 | 5.201
CC1/C=C/CCCCCCCCCCC(=O)C1 (stereo not shown) [Delta muscenone, (E)-3-methylcyclopentadec-4-en-1-one] | 666 | 0.147 | 0.979
CCCC(=O)OCCC(C)C [Isoamyl butyrate, isopentyl butyrate] | 682 | 0.585 | 3.989
CCCCCCCC=O [Octyl Aldehyde, octanal] | 206 | 1.156 | 2.381
CC(=O)c1ccc2ccccc2c1 [Methyl Beta-napthyl ketone, 1-(naphthalen-2-yl)ethan-1-one] | 425 | 0.212 | 0.901
CCOC(=O)C1OC1(C)c1ccccc1 (stereo not shown) [Ethyl methyl phenyl glycidate, ethyl 3-methyl-3-phenyloxirane-2-carboxylate] | – | 0.000 | 0.061
COc1ccc(C=O)cc1 [Anisic aldehyde, 4-methoxybenzaldehyde] | 372 | 0.232 | 0.862
CC(C)=CCCC(C)CC#N (stereo not shown) [Citronellyl nitrile, 3,7-dimethyloct-6-enenitrile] | 845 | 0.403 | 3.406
